Percent effect of library compounds

The values are deposited in ChEMBL (CHEMBL3988442, “University of Dundee, Small-Polar-MMV Screening Library” (2021)).

Mtb glucose medium: 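Whole-cell growth test on Mycobacterium tuberculosis, read after 3 days in glucose-containing 7H9 medium; the read-out is not stated. Tested at 50 µM. The record gives no direction; compounds that gave an IC50 in retests scored well above the rest, so higher reads as more growth inhibition. About 69,000 compounds were tested under these conditions; 1.1% (about 760) showed 50% or more at least once.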
Mtb cholesterol medium: 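Phenotypic screen: M. tuberculosis growth, cholesterol and DPPC medium, 4 days; the read-out is not stated. Tested at 50 µM. Higher reads as more growth inhibition (inferred: compounds with an IC50 in retests scored well above the rest). Of about 69,000 compounds tested this way, about 370 (0.54%) reached 50% or more in at least one test.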

Values are the deposited “Percent Effect”, in %.
How 0% and 100% were set is not recorded. Most values in the screen are low, and negative values occur.
The compounds are a random part of those screened.
Two or more numbers in one place are separate tests of the same structure; such repeats can differ widely.

Compound,Mtb glucose medium,Mtb cholesterol medium
Cc1cc(C)cc(C2(C(=O)N3CCCC(n4cncn4)C3)CC2)c1 (centres unmarked),-10.21%,-28.63%
CCOC(C)c1nccn1Cc1cc(C)on1 (centres unmarked),-2.738% & -9.8%,7.661%
NC(=O)c1csc(N2CCCC(c3nc4ccccc4[nH]3)C2)n1 (centres unmarked),25.03%,18.77%
[H][C@@]12CN(S(C)(=O)=O)C[C@]1(C(=O)NC)CCC21CCN(C(=O)NC)CC1,10.58%,-6.17%
[H][C@@]12COC[C@]1(c1nnc(C3CC3)o1)CN(C(=O)CS(C)(=O)=O)C2,-43.34%,-33.24%
[H][C@]12CC[C@](O)(CC1)C(CO)N2C(=O)Nc1ccccc1 (some centres unmarked),-31.94%,-12.9%
O=C(O)C(F)(F)F.O=C(c1ccccc1)N1CCC[C@]2(C[C@@H](OCc3ccncc3)CO2)C1,-18.69% & -3.775%,-15.97%
CN(C(=O)CN1CCC(c2cc3ccccc3[nH]2)CC1)C(C)(C)C#N,13.92% & -28.87%,-11.36%
CS(=O)(=O)NCC1CCCN(C(=O)Nc2ccccc2N2CCCC2)C1 (centres unmarked),-18.02%,-16.71%
COCCn1cnnc1C1CCCN(c2cnccn2)C1 (centres unmarked),-27.62%,-2.87%
CCOC1COC2(CCN(S(=O)(=O)c3cccc(C)c3)CC2)C1 (centres unmarked),10.34%,5.983%
c1cnnc(N2CCCC2CNCc2noc(C3CC3)n2)c1 (centres unmarked),4.272%,-5.903%
CCc1noc(CN(C)C(=O)C(C)(C)Oc2cccc(Cl)c2)n1,-30.19%,31.62%
CCc1cnc(CN(C)C2CCN(CC3CCOCC3)C2)o1 (centres unmarked),-0.2296%,-28.81%
CC(=O)NCCc1ccc(C(=O)N2CCCC2c2cnn(C)c2)cc1 (centres unmarked),-0.3638%,-26.9%
O=C(O)C(F)(F)F.OCCN1CCC2(CCc3cc(-c4ccoc4)ccc32)CC1,51.75% & 45.47%,23.5%
Cc1nccc(NCc2cc3n(n2)CCCN(C(=O)C2CCC2)C3)n1,-28.48%,-0.1119%
CCn1nc(C)cc1C(=O)N1CCOc2cc(C)ccc21,9.498%,9.163%
Cc1cnc(N)c(C(=O)C2CCN(C(=O)c3cnc(C)cn3)CC2)c1,-8.047%,19.96%
[H][C@@]12CCN(S(C)(=O)=O)[C@]1([H])CC[C@H](C(=O)NCCOC)O2,-1.484% & -2.862%,-20.09%
CC1CCc2n[nH]c(C(=O)NCCCc3ccco3)c2C1 (centres unmarked),26.78%,14.91%
COc1cc(C2Nc3cc(Cl)ccc3C3=NCCN32)ccc1O (centres unmarked),14.29%,2.524%
COc1ccc2nnc(CCC(=O)Nc3nc4c(s3)CCCCC4)n2n1,43.27%,9.22%
Cc1ccccc1CN(CCO)Cc1ncc[nH]1,0.4764% & -17.47%,6.671%
CC(Cc1cn(CCc2nnn[nH]2)nn1)c1ccccc1 (centres unmarked),-7.051% & -7.178%,-30.18%
O=C(O)C(F)(F)F.O=C(O)C(F)(F)F.[H][C@]12CCC[C@@]1(COCc1ccncc1)CN(C(=O)c1ccc(C)nc1)C2,-32.07% & -3.986%,-20.78% & 27.08%
CNC(=O)c1cc(NC(=O)NCC2CCS(=O)(=O)C2)ccc1OC (centres unmarked),-5.959%,-29.86%
CCOc1cccc(CNc2cnn(CC(C)C)c2CC)c1,5.299% & 5.629%,6.186%
O=C(c1ccco1)N1CCn2cc(CN3CCCC3)nc2C1,-10.8%,8.812% & -11.94%
CCC(CC)C(=O)NCc1cnn(CC)c1,-8.836%,-11.8%
CCCn1[nH]cc/c1=N\C(=O)CN1CCc2cnc(C(C)C)nc2C1,-9.446%,11.51%
CC(C(=O)N1CCn2cncc2C1)N1C[C@@H](C)O[C@@H](C)C1 (some centres unmarked),15.22%,-12.89% & -0.4196%
Cc1cnn(C2CCCN(C(=O)c3cccc(-n4cnnn4)c3)C2)c1 (centres unmarked),9.251%,4.433%
CCOCCOC(C)C(=O)NCc1cn2cc(Cl)ccc2n1 (centres unmarked),1.091%,-17.16% & -8.263%
CNC(=O)c1ccc(-n2c(COCC(=O)O)nc3c(C)cccc32)o1,10.48%,-3.648% & 12.74%
Cc1nc(C2CCCN(C(=O)C3=NN(C(C)C)C(=O)CC3)C2)no1 (centres unmarked),-35.38% & -4.513%,-16.29%
Cc1nc(C)n(C2CCCN(C(=O)CCOCC(C)C)C2)n1 (centres unmarked),-22.07%,-27.75%
CC(C)c1noc(CN2CCN(C(=O)c3cccc(F)c3)CC2)n1,18.82% & -16.94%,12.03%
CCOCc1nc2c(c(NC(CC)c3ccnn3C)n1)CCNCC2 (centres unmarked),4.793%,-11.66%
Cn1cc(S(=O)(=O)NC(=O)C2(c3cccc(Cl)c3)CC2)cn1,0.6129%,-8.856%
CCC(C)N(Cc1cccnc1)Cc1ccc2c(c1)OCCO2 (centres unmarked),8.349%,-7.428%
COCCN(Cc1sccc1C)C(=O)COc1ccccc1O,14.7%,-2.664%
O=C(O)c1cc(S(=O)(=O)Nc2ccc(F)c(Cl)c2)cc2c1OCCO2,-9.664%,-14.27%
CCOCCN(CCOCC)c1nc(C)nc2sccc12,2.381% & -2.594%,8.522% & -11.44%
O=C(O)C(F)(F)F.[H][C@@]12CCN(c3ncccn3)[C@@]1([H])CCN2C(=O)N1CCCC1,-18.96%,-12.31%
CCCN1CCCC2(CCN(S(=O)(=O)c3cc(C)nn3CC)C2)C1=O (centres unmarked),-8.324%,11.22%
COc1cc(OC)cc(C2NC(=O)CN2Cc2ccc(Br)cc2)c1 (centres unmarked),-12.75%,-17.41%
O=C(c1ccccc1C(F)(F)F)N1CC[C@@H](N2CCC(O)CC2)[C@H](O)C1,-3.39% & 2.202%,-14.87% & 2.971%
COc1ncccc1NC(=O)c1[nH]nc(C(C)C)c1Br,22.42%,23.01%
CC(SCC(=O)NC(N)=O)c1ccccc1F (centres unmarked),9.973%,24.4%
[H][C@]12CCCN(S(=O)(=O)c3ccc(OC)c(F)c3)[C@@]1([H])CN(C(=O)C1CC1)C2,-3.173%,-7.182% & 4.155%
CC(C)c1ncncc1C(=O)N1CCN(Cc2ccccn2)CC1,-14.94%,4.924%
CN(C)CCNC(=O)c1sc2ccccc2c1C1CCC(CN)CC1.Cl (centres unmarked),10.96%,19.26%
O=C1CN(c2ccc(CNC(=O)c3cccnc3O)cc2F)CCN1,2.473%,-2.83% & -9.814%
CN(C)[C@@H]1CO[C@H](CNC(=O)c2ccccc2)[C@H]1O,-20.81% & 23.33%,1.613%
CCCn1cc(-c2ccnc(NC3CCc4ccccc4C3)n2)c(C)n1 (centres unmarked),44%,13.25%
Cn1cc(C#N)cc1C(=O)NC1(C#N)CCSCC1,-6.348%,12.22%
CC(C)n1cnnc1CN(C)Cc1cnc(-c2ccco2)nc1,-27.58%,-19.26% & 1.431%
N#Cc1ccc(N2CCC(c3nc(C(F)(F)F)c[nH]3)CC2)nc1,1.159%,2.357%
Cc1nn(C)c(Cl)c1C1CCCN1Cc1nc(-c2ccco2)no1 (centres unmarked),26.54% & 17.48%,3.152%
O=C(c1cccs1)N1CC[C@H](O)[C@@H]1Cc1ccccc1,-5.307%,-2.728%
O=C(O)C(F)(F)F.O=C(O)C(F)(F)F.[H][C@@]12CCN(c3ncccn3)[C@@]1([H])CCN2CC(=O)N(C)C,16.72%,-9.602%
O=C(NCCCO)Nc1cccc(C[S+]([O-])c2ccccc2)c1 (centres unmarked),23.52%,-12.51%
CC(=O)Nc1nc(C(=O)N2CCCC2c2noc(C(C)C)n2)cs1 (centres unmarked),9.921%,-10.16%
C=C(C)CN1CCCC(NS(C)(=O)=O)C1 (centres unmarked),-12%,5.882%
Cc1ccc(CNC(c2ccc(F)cc2)c2nccn2C)o1 (centres unmarked),18.04%,-10.68%
CNC(=O)COC1COC2(CCN(Cc3cccnc3)CC2)C1.O=C(O)C(F)(F)F (centres unmarked),5.151%,-7.12%
O=C(O)C(F)(F)F.c1ccc(OCc2noc3c2CN(c2ncccn2)CC3)nc1,-8.411% & -5.093%,18.19%
O=C(c1nc(Cc2c[nH]c3ccccc23)no1)N1CCCCC1,-21.97%,-2.024%
CC(C)Nc1cc(N2CCC(n3cc(C4CC4)nn3)CC2)ncn1,-17.72%,-1.163% & -22.37%
O=C1COC2(CCN(c3ncccn3)CC2)CN1c1ccsc1,-4.415% & -23.41%,-15.62%
Cc1cccc(C(=O)N2CC(Cc3nccc4ccn(C)c34)C2)n1,-10.42%,-1.668%
Cn1ccnc1CN1CCC(CCCc2ccccn2)(C(N)=O)CC1,16.7%,-4.792%
c1cnc2[nH]c(C3CCCC3)c(CN3CCOCC3)c2c1,-25.97%,-12.39%
Cc1ccc(N2CCN(C(=O)CCc3ccc(O)cc3)CC2=O)cc1,-0.6322%,-20.78%
CC(C)(C)CN1CCC[C@H]1c1nc(-c2cncnc2N)no1,-3.051% & 3.639%,-8.544%
CC(C)c1nc(CC(=O)N(C)Cc2ccc3c(c2)OCO3)cs1,2.927%,1.718%
[H][C@]12CC[C@](O)(CC1)C(CN1CCOCC1)N2C(=O)c1ccco1 (some centres unmarked),10.39%,-0.7942%
CC(C)(C)n1cc(C(=O)N2CCN(Cc3ccncc3)CC2)cn1,-29.28%,-0.9409%

Once more, the final 8:

Compound	Mtb glucose medium	Mtb cholesterol medium
Cc1cccc(C(=O)N2CC(Cc3nccc4ccn(C)c34)C2)n1	-10.42%	-1.668%
Cn1ccnc1CN1CCC(CCCc2ccccn2)(C(N)=O)CC1	16.7%	-4.792%
c1cnc2[nH]c(C3CCCC3)c(CN3CCOCC3)c2c1	-25.97%	-12.39%
Cc1ccc(N2CCN(C(=O)CCc3ccc(O)cc3)CC2=O)cc1	-0.6322%	-20.78%
CC(C)(C)CN1CCC[C@H]1c1nc(-c2cncnc2N)no1	-3.051% & 3.639%	-8.544%
CC(C)c1nc(CC(=O)N(C)Cc2ccc3c(c2)OCO3)cs1	2.927%	1.718%
[H][C@]12CC[C@](O)(CC1)C(CN1CCOCC1)N2C(=O)c1ccco1 (some centres unmarked)	10.39%	-0.7942%
CC(C)(C)n1cc(C(=O)N2CCN(Cc3ccncc3)CC2)cn1	-29.28%	-0.9409%